From PubChem BioAssay AID2284419 (EPA ToxCast)
Inconclusive results, whose numbers are uncertain, are shown with a selection of clear calls. Where the call is inconclusive, the potency comes from a doubtful curve fit. The source made the active and inactive calls. How the source made its calls: active means hit-call score of the fitted dose curve at least 0.9, where 1 is the maximum; inconclusive means response in the unintended direction; inactive means score below 0.9.

test system: SRY-box transcription factor 2 (SOX2) Protein Expression, Deisenroth Lab, SOX2 (gene 6657); experiment: CCTE_Deisenroth_DEVTOX-GLR_Meso_SOX2: CCTE's DevTox GLR-Meso Assay Evaluation of SRY-box transcription factor 2 (SOX2) Protein Expression, Deisenroth Lab
Description: CCTE_Deisenroth_DEVTOX-GLR_Meso assay is a cell-based, multiplex-readout assay that uses RUES2-GLR, a human pluripotent cell line, with measurements taken at 48 hours after chemical dosing in a 384-well microplateCCTE_Deisenroth_DEVTOX-GLR_Meso_SOX2 is 1 of 4 assay components calculated from the CCTE_Deisenroth_DEVTOX-GLR_Meso assay and it measures an the percentage of cells in an ectoderm state. Using a type of inducible fluorescent protein reporter, gain-of-signal activity can be used to understand changes in gene expression with fluorescent microscopy. The percentage of SOX2+ cells are determined by calculating the number of SOX2+ cells divided by the cell count. To generalize the intended target to other relatable targets, this assay component is annotated to the transcription factor intended target family, where the subfamily is SRY-related HMG-box.Data from the assay component CCTE_Deisenroth_DEVTOX-GLR_Meso_SOX2 was analyzed as 1 assay endpoint. The endpoint is the percent SOX2+ cell population minus the 0.2% DMSO control in the CCTE_Deisenroth_DEVTOX-GLR_Meso assay. Furthermore, this assay endpoint can be referred to as a secondary readout, because this assay has produced multiple assay endpoints where this one serves as a measure of ectoderm differentiation.
All assay protocols are aligned to the DevTox GLR-Endo assay workflow. Cells are seeded into 384-well microplates for 24 hours prior to initiating differentiation in defined media for a total duration of 48 hours. A total of two chemical exposures are administered in 24-hour intervals during the 48-hour differentiation period. At the assay termination point, cells are fixed and stained with a fluorescent dye demarcating the nucleus. High-content imaging is used to acquire brightfield and fluorescent channel images across 5 fields per well. Cell identification and mean biomarker fluorescence intensities are calculated with image analysis software to determine the total cell counts for viability assessment and the biomarker expression frequency for each lineage-dependent assay. […]

Row | Compound | AC50
1 | CC1=C(/C=C/C(C)=C/C=C/C(C)=C/C(=O)O)C(C)(C)CCC1 | active: 7.53 µM
2 | CCCC(CCC)C(=O)O | inconclusive: 100 µM
3 | CC1=C(/C=C/C(C)=C/C=C/C(C)=C\C(=O)O)C(C)(C)CCC1 | active: 18.8 µM
